Some of the results follow. Most entries show no effect beyond the scatter of the controls.

Sequences of proteins named here, by UniProt entry; tags and fusion partners are left off. A change or cut given only in a name is not applied to a line headed by its entry.
UniProt Q9BXK5, whole entry: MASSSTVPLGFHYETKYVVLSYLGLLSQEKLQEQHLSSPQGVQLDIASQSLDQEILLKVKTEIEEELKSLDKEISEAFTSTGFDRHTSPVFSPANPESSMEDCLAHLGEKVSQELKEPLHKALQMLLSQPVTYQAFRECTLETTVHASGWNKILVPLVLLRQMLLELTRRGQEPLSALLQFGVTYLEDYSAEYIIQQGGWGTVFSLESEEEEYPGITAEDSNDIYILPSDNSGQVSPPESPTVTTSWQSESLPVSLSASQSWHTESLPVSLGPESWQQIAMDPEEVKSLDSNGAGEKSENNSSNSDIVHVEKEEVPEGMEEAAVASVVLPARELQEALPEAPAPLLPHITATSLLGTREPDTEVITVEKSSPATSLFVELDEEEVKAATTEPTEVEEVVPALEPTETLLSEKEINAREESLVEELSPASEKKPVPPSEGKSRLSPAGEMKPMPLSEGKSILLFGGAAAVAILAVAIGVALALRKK
UniProt Q9H1C7: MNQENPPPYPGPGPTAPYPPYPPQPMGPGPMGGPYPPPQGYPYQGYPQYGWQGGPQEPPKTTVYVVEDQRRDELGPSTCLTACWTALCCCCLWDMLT
UniProt Q9H0Y0: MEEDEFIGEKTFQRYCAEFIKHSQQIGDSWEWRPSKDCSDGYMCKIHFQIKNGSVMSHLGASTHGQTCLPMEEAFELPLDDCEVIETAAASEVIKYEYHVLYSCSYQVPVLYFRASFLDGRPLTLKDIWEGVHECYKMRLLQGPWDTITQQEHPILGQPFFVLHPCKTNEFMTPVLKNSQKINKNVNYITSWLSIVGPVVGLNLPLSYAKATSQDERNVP
UniProt Q9H0A9: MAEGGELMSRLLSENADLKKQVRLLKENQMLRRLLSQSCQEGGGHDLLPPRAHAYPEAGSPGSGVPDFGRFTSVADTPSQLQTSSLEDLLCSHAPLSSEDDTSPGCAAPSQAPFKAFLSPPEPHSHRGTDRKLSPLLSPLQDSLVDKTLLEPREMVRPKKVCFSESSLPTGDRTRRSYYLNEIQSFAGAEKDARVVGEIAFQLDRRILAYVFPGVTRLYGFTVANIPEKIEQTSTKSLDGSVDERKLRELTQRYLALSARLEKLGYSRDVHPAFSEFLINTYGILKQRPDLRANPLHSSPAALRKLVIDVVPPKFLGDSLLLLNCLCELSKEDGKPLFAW
UniProt Q9BZ23: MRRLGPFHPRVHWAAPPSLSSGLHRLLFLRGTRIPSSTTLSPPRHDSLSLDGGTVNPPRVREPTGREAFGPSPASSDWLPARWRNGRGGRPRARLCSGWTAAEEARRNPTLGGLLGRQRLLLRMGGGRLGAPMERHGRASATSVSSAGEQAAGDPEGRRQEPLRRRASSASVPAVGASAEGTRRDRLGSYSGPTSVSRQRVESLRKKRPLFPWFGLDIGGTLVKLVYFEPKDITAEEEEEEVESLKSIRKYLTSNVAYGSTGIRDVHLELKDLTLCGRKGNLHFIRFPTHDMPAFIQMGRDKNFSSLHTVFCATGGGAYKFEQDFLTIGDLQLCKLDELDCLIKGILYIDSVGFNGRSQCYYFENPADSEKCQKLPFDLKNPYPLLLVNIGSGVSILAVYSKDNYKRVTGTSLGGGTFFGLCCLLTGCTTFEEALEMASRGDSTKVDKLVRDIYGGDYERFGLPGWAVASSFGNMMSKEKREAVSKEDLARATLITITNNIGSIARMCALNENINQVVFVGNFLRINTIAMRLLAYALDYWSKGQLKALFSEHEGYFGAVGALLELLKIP
UniProt Q9BZG8: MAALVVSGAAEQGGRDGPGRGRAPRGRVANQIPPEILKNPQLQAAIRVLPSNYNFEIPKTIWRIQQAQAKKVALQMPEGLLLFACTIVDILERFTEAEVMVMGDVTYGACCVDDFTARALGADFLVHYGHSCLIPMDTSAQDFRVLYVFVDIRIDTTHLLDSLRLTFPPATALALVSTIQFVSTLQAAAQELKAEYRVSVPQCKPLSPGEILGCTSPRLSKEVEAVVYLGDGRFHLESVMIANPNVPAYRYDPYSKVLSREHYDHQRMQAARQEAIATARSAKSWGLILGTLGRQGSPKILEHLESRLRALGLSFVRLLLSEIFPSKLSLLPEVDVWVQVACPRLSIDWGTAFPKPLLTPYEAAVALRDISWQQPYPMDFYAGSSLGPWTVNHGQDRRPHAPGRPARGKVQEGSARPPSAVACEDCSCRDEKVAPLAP
UniProt Q9H1I8: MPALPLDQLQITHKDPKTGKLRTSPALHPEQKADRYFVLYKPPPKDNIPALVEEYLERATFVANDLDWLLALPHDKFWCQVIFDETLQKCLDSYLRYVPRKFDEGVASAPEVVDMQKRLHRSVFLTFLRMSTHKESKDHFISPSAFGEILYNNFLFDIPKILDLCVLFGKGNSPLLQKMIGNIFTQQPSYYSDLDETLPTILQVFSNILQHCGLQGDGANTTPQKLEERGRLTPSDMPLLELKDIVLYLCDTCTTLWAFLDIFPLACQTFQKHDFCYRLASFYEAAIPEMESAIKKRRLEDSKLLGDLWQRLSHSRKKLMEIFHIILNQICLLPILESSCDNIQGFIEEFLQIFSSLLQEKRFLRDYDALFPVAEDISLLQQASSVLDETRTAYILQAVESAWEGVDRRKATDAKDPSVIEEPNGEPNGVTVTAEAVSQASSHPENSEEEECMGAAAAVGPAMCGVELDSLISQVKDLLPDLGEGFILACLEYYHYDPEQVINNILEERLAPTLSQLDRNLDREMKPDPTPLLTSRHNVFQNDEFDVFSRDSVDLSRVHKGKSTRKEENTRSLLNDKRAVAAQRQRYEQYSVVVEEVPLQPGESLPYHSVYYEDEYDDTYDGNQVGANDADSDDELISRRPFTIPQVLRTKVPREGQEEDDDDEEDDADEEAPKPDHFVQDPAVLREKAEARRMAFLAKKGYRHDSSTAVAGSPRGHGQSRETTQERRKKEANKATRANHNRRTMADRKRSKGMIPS
UniProt Q9C0A6: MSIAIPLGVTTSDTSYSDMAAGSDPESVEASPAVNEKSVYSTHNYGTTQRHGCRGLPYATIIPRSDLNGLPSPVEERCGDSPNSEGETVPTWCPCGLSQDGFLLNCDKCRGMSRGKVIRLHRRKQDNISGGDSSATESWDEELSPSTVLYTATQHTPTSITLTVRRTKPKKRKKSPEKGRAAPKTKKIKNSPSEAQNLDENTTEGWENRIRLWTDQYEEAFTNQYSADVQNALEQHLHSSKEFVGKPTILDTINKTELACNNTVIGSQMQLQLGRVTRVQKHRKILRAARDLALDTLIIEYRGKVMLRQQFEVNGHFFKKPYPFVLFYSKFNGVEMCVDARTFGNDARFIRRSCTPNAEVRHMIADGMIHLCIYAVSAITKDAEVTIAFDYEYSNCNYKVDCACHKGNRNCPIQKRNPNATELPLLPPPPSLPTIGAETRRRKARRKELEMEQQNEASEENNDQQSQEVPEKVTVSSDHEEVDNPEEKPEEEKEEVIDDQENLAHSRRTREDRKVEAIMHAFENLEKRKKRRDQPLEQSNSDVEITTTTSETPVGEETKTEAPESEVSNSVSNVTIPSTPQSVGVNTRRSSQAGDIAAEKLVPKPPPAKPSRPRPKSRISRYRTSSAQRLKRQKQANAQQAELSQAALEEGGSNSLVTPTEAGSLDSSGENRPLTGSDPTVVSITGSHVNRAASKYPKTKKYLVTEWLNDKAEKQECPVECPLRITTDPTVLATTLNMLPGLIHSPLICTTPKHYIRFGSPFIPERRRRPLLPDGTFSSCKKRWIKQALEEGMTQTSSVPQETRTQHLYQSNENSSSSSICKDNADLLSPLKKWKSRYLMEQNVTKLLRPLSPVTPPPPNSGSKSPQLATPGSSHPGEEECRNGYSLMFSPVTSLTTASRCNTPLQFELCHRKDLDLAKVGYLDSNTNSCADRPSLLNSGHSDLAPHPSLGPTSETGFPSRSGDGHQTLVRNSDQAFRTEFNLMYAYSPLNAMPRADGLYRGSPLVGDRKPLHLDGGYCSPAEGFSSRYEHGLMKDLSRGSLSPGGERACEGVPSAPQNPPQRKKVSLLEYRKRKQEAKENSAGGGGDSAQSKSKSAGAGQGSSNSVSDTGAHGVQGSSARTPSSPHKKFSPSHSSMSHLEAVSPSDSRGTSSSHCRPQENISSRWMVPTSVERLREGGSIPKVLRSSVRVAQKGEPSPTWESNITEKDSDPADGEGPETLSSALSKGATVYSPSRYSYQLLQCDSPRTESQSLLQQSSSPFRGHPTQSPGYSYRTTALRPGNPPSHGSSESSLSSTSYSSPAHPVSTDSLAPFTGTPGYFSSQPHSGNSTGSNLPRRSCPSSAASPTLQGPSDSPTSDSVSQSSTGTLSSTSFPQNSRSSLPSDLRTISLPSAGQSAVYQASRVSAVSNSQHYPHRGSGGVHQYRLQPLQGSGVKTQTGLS
UniProt Q9C0B1, whole entry, looked up: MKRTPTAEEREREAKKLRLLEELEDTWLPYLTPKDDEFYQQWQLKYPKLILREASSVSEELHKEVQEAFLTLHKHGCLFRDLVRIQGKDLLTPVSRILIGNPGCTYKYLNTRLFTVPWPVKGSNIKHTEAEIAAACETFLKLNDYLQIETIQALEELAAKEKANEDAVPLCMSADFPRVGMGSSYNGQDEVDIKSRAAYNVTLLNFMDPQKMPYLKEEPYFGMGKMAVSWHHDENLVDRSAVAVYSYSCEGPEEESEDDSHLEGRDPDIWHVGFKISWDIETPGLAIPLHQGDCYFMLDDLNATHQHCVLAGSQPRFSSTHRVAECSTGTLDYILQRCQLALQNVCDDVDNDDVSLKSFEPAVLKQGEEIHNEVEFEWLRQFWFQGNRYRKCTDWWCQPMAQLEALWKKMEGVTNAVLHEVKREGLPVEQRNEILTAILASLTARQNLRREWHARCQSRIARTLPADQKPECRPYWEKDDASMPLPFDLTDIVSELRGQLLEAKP
UniProt Q9H0E9, whole entry: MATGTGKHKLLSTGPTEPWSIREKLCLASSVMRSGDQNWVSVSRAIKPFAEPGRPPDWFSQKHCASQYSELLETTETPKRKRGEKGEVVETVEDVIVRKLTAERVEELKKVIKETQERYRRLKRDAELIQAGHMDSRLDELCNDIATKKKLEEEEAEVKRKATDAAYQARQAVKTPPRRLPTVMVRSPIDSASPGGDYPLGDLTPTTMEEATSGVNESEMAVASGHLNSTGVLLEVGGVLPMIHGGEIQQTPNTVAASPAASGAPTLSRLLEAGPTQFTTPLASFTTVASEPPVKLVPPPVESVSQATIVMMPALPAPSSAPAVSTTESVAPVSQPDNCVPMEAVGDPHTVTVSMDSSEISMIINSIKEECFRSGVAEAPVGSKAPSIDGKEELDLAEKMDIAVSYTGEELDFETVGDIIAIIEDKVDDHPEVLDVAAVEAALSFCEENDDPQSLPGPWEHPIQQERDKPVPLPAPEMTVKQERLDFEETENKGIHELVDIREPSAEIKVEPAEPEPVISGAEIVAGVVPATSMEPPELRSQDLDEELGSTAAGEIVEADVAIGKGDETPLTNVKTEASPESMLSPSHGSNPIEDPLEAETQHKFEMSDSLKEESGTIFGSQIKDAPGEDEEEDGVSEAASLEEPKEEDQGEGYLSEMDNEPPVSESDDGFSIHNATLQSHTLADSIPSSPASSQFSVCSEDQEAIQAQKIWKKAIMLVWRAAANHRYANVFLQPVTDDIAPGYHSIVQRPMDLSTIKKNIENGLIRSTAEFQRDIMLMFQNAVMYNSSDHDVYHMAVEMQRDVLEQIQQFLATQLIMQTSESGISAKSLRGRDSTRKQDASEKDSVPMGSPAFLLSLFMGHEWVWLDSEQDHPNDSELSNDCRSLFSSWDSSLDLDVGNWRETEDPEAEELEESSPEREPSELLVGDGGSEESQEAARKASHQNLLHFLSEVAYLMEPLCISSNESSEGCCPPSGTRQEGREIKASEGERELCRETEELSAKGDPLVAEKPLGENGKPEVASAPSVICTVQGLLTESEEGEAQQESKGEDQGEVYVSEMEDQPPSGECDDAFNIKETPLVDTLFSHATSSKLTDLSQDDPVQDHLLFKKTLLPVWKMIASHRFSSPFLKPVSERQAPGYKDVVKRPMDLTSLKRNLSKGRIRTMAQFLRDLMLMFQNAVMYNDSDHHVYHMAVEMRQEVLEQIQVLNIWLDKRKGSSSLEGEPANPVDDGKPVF
UniProt Q9BYM8: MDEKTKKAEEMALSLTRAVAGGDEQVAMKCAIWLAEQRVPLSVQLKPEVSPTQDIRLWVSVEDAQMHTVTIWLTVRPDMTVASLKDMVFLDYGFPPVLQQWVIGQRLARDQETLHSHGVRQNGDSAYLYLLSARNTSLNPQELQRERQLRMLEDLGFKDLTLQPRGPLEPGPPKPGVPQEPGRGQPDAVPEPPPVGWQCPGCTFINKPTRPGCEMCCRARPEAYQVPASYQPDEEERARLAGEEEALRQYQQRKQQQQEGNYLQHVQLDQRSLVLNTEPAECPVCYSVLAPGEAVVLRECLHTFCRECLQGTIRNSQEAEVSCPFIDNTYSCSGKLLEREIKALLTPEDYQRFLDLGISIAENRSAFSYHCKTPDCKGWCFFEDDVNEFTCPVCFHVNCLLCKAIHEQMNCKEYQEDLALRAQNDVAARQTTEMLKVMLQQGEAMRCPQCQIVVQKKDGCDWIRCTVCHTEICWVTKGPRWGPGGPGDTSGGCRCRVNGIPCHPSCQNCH

Compound in the assay: CN[C@@H]1C[C@H]2O[C@@](C)([C@@H]1OC)n1c3ccccc3c3c4c(c5c6ccccc6n2c5c31)C(=O)NC4 [staurosporine]
Description: log2 fold change of tryptic peptide abundance, ligand vs vehicle (limited proteolysis) (log2 ratio); higher = more trypsin-susceptible (destabilized). As to conditions: ligand concentration: 20 uM; sample: K562 cleared lysate; digestion: 4 min, 22 C (HT-PELSA RT4min, Orbitrap Astral).
“MAP1LC3B (peptide sequence: QLPVLDKTK, peptide start residue: 43) (UniProt Q9GZQ8)”: the log2 fold change was determined as 0.361.

For the target “EPC1 (peptide sequence: EVYEYWIK, peptide start residue: 173) (UniProt Q9H2F5)”, the log2 fold change was -0.506. The same measure for “BCL2L13 (peptide sequence: QMLLELTR, peptide start residue: 162) (UniProt Q9BXK5)”: 0.397; for “CYSTM1 (peptide sequence: TTVYVVEDQRR, peptide start residue: 61) (UniProt Q9H1C7)”: -0.134; for “LRRCC1 (peptide sequence: LIQEVELK, peptide start residue: 545) (UniProt Q9C099)”: -0.158. With “MRPL4 (peptide sequence: HQTLVLTLPTVAFLEDK, peptide start residue: 256) (UniProt Q9BYD3)” the figure was 0.601. With “POLR2J3 (peptide sequence: VPHPLEHK, peptide start residue: 63) (UniProt Q9H1A7)” the figure was 0.729. In the case of “UniProt Q9H2L5 (peptide sequence: LKEEEER, peptide start residue: 351)”, the log2 fold change worked out at 0.132. With “PUS3 (peptide sequence: IEHPHLFHEEETK, peptide start residue: 436) (UniProt Q9BZE2)” the figure was -0.255. “MRPS26 (peptide sequence: ELMAWNQAENRR, peptide start residue: 104) (UniProt Q9BYN8)”: the log2 fold change was -0.102.

With “ATG10 (peptide sequence: ASFLDGRPLTLK, peptide start residue: 115) (UniProt Q9H0Y0)”, the log2 fold change is -0.164. With “MRPL32 (peptide sequence: NNIDVCPECGHLK, peptide start residue: 105) (UniProt Q9BYC8)” the figure was 0.0589; with “UniProt Q9H0A9 (peptide sequence: SLDGSVDER, peptide start residue: 237)”, 0.353.

With “PTPN23 (peptide sequence: REESEAVEAGDPPEELR, peptide start residue: 730) (UniProt Q9H3S7)”, the log2 fold change was -0.101. With “PANK2 (peptide sequence: LGSYSGPTSVSR, peptide start residue: 187) (UniProt Q9BZ23)” the figure was -0.147; with “DPH1 (peptide sequence: GKVQEGSARPPSAVACEDCSCR, peptide start residue: 413) (UniProt Q9BZG8)”, -0.278; with “ASCC2 (peptide sequence: PALPLDQLQITHKDPK, peptide start residue: 2) (UniProt Q9H1I8)”, 0.183. With “TBL1XR1 (peptide sequence: EGGQDVPSNK, peptide start residue: 217) (UniProt Q9BZK7)” the figure was -0.577. The same measure for “UniProt Q9H0W8 (peptide sequence: GMGTAAPAAMDPVVGQAK, peptide start residue: 153)”: -0.294; for “PDCL3 (peptide sequence: MQDPNADTEWNDILR, peptide start residue: 1) (UniProt Q9H2J4)”: -0.241; for “UniProt Q9C0A6 (peptide sequence: SVYSTHNYGTTQR, peptide start residue: 38)”: -0.383.

Take “FTO (peptide sequence: LFTVPWPVK, peptide start residue: 113) (UniProt Q9C0B1)”: the log2 fold change was 0.326. With “UPF3B (peptide sequence: RPEDESGRDYR, peptide start residue: 336) (UniProt Q9BZI7)” the figure was -0.34; with “COLEC11 (peptide sequence: YADAQLSCQGR, peptide start residue: 163) (UniProt Q9BWP8)”, 0.312. The same measure for “CDCA4 (peptide sequence: SVLIANTVR, peptide start residue: 59) (UniProt Q9BXL8)”: 0.189; for “UniProt Q9H1J7 (peptide sequence: ETAFTHAVSAAGVVNAISR, peptide start residue: 113)”: 0.0966; for “SPNS1 (peptide sequence: STRVPVASVLI, peptide start residue: 518) (UniProt Q9H2V7)”: -0.119. As for “CENPH (peptide sequence: IEDLENEIEEVKVAFEIKK, peptide start residue: 82) (UniProt Q9H3R5)”, the log2 fold change was determined as 0.365.

On to “UPF3A (peptide sequence: AHHEPER, peptide start residue: 371) (UniProt Q9H1J1)”, for which the log2 fold change was found to be 0.456. With “API5 (peptide sequence: KVLEDVTGEEFVLFMK, peptide start residue: 181) (UniProt Q9BZZ5)” the figure was 0.555. In the case of “UniProt Q9BYG4 (peptide sequence: VPGIFISR, peptide start residue: 189)”, the log2 fold change is -0.107. As for “C20orf27 (peptide sequence: VMDRHHGTPMLLDGVK, peptide start residue: 140) (UniProt Q9GZN8)”, the log2 fold change is 0.689. “SORBS1 (peptide sequence: SKSEMSYIDGEK, peptide start residue: 479) (UniProt Q9BX66)”: the log2 fold change is -0.518. The same measure for “BRD8 (peptide sequence: LLSTGPTEPWSIR, peptide start residue: 10) (UniProt Q9H0E9)”: -0.717; for “RBCK1 (peptide sequence: CAIWLAEQR, peptide start residue: 30) (UniProt Q9BYM8)”: -0.563.

For the target “HDHD2 (peptide sequence: AVLVDLSGTLHIEDAAVPGAQEALKR, peptide start residue: 9) (UniProt Q9H0R4)”, the log2 fold change is -0.918. On to “UniProt Q9GZX5 (peptide sequence: NVVLVGQPVVR, peptide start residue: 483)”, for which the log2 fold change was -0.249.

The values are drawn from the supplement of paper PMC12819154, “High-throughput peptide-centric local stability assay extends protein–ligand identification to membrane proteins, tissues and bacteria” (Nature Structural & Molecular Biology, 2025).
